Consider 1 molecule from patent US5550213, “Inhibitors of urokinase plasminogen activator” (Rutgers, The State University of New Jersey, dated 1996).

This experiment addresses Urokinase plasminogen activator (Homo sapiens (Human), UniProt P00749). Nature of the experiment: inhibition of UK activity; Ki by non-linear regression (Enzfitter) of free enzyme versus inhibitor concentration. As for the experimental part:
Fractional enzyme activities for each inhibitor-UK interaction of the above discussed inhibitors were determined by the assay method of Empie and Laskowski (Empie, M. W. et al., *Biochem.* 21:2274–2284 (1982)), as adapted from Green and Work (Green, N. M. et al., Biochem. J. 54:347–352 (1953)). The concentration of UK used for these reactions was 35 nM. The reactions were carried out in Buffer C. […] These five mutants include the four detailed above (88, 89, 80, AND 91), and also a mutant with arginine at the P1 site of OM3TKY (P1-Arg). […] The values for PSTI, PAI-1, PAI-2, and Nexin-1 were obtained from Turpeinen, U. et al. (*Biochem. J.* 254:911–914 (1988)), Kruithof, C.K.O. et al. (Thromb.-Haemost. 55::65–68 (1986)), Christensen, U. et al. (Thromb.-Haemost. 48:24–26 (1982)), and Stein, P. E. et al. (*Nature* 347:99–102 (1990)), respectively.
K_i values for the wild-type and mutant inhibitors versus urokinase were also determined by non-linear regression of the following equation: […]
The non-linear regression was done using the program Enzfitter, by Robin Leatherbarrow. E_o represents a total enzyme concentration in the reaction, I_o represents total inhibitor concentration, E is the free enzyme for a given inhibitor concentration and K_i is the equilibrium constant for the inhibitor. […] Enzyme and inhibitor concentrations used were determined as mentioned above.

B1: wild type turkey ovomucoid third domain (other)
chain: VDCSEYPKPACTLEYRPLCGSDNKTYGNKCNFCNAVVESNGTLTLSHFGKC
For orientation: Ki means a measure of affinity in units of concentration, obtained from inhibition or displacement. The molecule B1 registered a Ki of 796 nM.
